Measured values reported in patent US10506807B2, “Halogen-substituted phenoxyphenylamidines and the use thereof as fungicides” (priority 2015, dated 2019).
Some of these results come from one statement about several compounds together.

Tests used:
Pyrenophora teres = assay: In vivo preventive test on Pyrenophora teres (net blotch on barley); details: 500 ppm of active ingredient, preventive spray on barley, evaluated 14 days after inoculation
Puccinia recondita = assay: In vivo preventive test on Puccinia recondita (brown rust on wheat); details: 500 ppm of active ingredient, preventive spray on wheat, evaluated 11 days after inoculation
Uromyces appendiculatus = assay: In vivo preventive test on Uromyces appendiculatus (bean rust); details: 500 ppm of active ingredient, preventive spray on bean, evaluated 11 days after inoculation
Sphaerotheca fuliginea = assay: In vivo preventive test on Sphaerotheca fuliginea (powdery mildew on cucurbits); details: 500 ppm of active ingredient, preventive spray on gherkin, evaluated 15 days after inoculation
Septoria tritici = assay: In vivo preventive test on Septoria tritici (leaf spot on wheat); details: 500 ppm of active ingredient, preventive spray on wheat, evaluated 24 days after inoculation
Phakopsora pachyrhizi = assay: In vivo preventive test on Phakopsora (soybeans); details: 10 ppm of active ingredient, preventive spray on soybeans, evaluated 7 days after inoculation
Experimental: Example: In Vivo Preventive Test on Phakopsora Test (Soybeans)
• Solvent: 24.5 parts by weight of acetone • 24.5 parts by weight of dimethylacetamide • Emulsifier: 1 part by weight of alkylaryl polyglycol ether
To produce a suitable preparation of active compound, 1 part by weight of active compound is mixed with the stated amounts of solvent and emulsifier, and the concentrate is diluted with water to the desired concentration.
To test for preventive activity, young plants are sprayed with the preparation of active compound at the stated rate of application. After the spray coating has dried on, the plants are inoculated with an aqueous spore suspension of the causal agent of soybean rust (Phakopsora pachyrhizi) and stay for 24 h without light in an incubation cabinet at approximately 24° C. and a relative atmospheric humidity of 95%.
The plants remain in the incubation cabinet at approximately 24° C. and a relative atmospheric humidity of approximately 80% and a day/night interval of 12 h.
The test is evaluated 7 days after the inoculation. 0% means an efficacy which corresponds to that of the untreated control, while an efficacy of 100% means that no disease is observed.

Measured: efficacy

CCN(C)/C=N/c1cc(C)c(Oc2ccccc2F)cc1Cl [Example I-01, N′-[2-chloro-4-(2-fluorophenoxy)-5-methylphenyl]-N-ethyl-N-methylimidoformamide]
not listed: Phakopsora pachyrhizi
at least 70%: all other assays above

CCN(C)C=Nc1cc(C)c(Oc2ccccc2F)cc1C(F)F [Example I-02, N′-[2-(difluoromethyl)-4-(2-fluorophenoxy)-5-methylphenyl]-N-ethyl-N-methylimidoformamide]
not listed: Pyrenophora teres
at least 70%: all other assays above

CCN(C)C=Nc1cc(C)c(Oc2ccccc2F)cc1Br [Example I-03, N′-[2-bromo-4-(2-fluorophenoxy)-5-methylphenyl]-N-ethyl-N-methylimidoformamide]
not listed: Septoria tritici
at least 70%: all other assays above

CCN(C)C=Nc1cc(C)c(Oc2ccccc2Cl)cc1Br [Example I-04, N′-[2-bromo-4-(2-chlorophenoxy)-5-methylphenyl]-N-ethyl-N-methylimidoformamide]
at least 70%: all assays above
